Assay results taken from patent publication US20170355781A1 (CCAM BIOTHERAPEUTICS, published 2017).
These are yes or no findings as the source states them, for the method shown. Some binding calls cover weakened binding; strength is not graded here.

How the values were obtained:
[1] = biological target: T1, recombinant purified human CEACAM1 (human, UniProt P13688 35-428, limits assumed); test: indirect ELISA on purified human CEACAM1
T1 construct: also called purified hCEACAM1; Recombinant CEACAM1
T1 sequence (looked up): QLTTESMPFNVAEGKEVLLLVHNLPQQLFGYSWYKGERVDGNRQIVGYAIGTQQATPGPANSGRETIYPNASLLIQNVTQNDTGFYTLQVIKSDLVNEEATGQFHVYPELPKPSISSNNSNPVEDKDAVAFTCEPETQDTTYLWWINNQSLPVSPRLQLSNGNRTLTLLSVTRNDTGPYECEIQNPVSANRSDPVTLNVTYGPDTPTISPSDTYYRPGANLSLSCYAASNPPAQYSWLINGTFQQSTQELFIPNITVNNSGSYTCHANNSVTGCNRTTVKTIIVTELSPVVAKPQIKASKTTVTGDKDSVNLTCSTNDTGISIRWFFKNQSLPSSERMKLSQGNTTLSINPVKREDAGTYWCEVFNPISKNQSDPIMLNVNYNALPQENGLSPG

[2] = biological target: T1, recombinant purified human CEACAM1; test: indirect ELISA on plate-bound purified human CEACAM1, double dilutions of CM10
Experimental: The binding specificity of CM10 to human CEACAM1 was tested in ELISA assay using purified human CEACAM1. Indirect ELISA using 23 double dilutions of CM10 were used to generate specific binding curve. The results shown in FIG. 2 represent average O.D. from triplicate±SE. Similar results were obtain from other ten independent experiments.

- binding [1]: binds
- binding [2]: binds
B1: chimeric monoclonal antibody CM10 (antibody, human IgG1, kappa, V domains shown)
VH: QVQLQQSGAELVRPGTSVKVSCKASGYAFTNNLIEWVKQRPGQGLEWIGVINPGSGDTNYNEKFKGKATLTADKSSNTAYMQLSSLTSDDSAVYFCARGDYYGGFAVDYWGQGTSVTVSS
VL: DIQMTQTTSSLSASLGDRVTISCRTSQDIGNYLNWYQQKPDGTVKLLIYYTSRLHSGVPSRFSGSGSGTDYSLTISNLEQEDIATYFCQQGKSLPRTFGGGTKLEIKR
notes: made in CHO cells; PE-conjugated CM10 was used for the QuantiBRITE count; also called CM10.S91; anti CEACAM1 mAb, CM10
